Measurements taken from patent US12780800B1, “Triazole-pyridinyl substituted azacyclohexyl acetic acid compounds as LPA receptor antagonists” (Viva Star Biosciences Limited, priority 2021, dated 2022).
The structures given here were assigned with low confidence; some may be wrong.

Protein sequences, listed by entry. Tags and fused reporters are not part of them.
UniProt Q92633, whole entry: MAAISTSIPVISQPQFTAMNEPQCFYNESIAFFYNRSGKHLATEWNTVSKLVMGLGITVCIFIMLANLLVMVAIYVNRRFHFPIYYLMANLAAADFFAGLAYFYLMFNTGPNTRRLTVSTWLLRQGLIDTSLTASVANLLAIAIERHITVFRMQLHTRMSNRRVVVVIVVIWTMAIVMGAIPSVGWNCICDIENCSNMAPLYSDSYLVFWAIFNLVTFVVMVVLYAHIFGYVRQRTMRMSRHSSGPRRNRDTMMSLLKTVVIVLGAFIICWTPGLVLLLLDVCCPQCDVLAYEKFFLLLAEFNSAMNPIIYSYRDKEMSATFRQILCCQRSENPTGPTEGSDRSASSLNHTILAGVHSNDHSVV

Target: LPA1 (Homo sapiens, UniProt Q92633)
Test: LPA1 calcium flux assay (LPA1 functional antagonist assay)
Format: cell-based
Conditions: read-out: LPA1 IC50; PathHunter CHO-K1 EDG2 β-Arrestin cell line; calcium indicator dye; stimulated with EC80 concentration of LPA; FLIPR Tetra

- IC50: 500 to 5000 nM
SMILES: CCCc1cnc(=O)n(Cc2c(-c3ccc(N4C[C@@H](CC(=O)O)CC(F)(F)C4)c(CC)n3)nnn2C)c1
